# Measured values reported in PubChem BioAssay AID1487 (National Center for Advancing Translational Sciences (NCATS), 2009).
# In all, about 200,000 compounds went through this assay and about 25 (0.01%) were called active. The inconclusive results got no clear call from the source; some entries with a clear call stand among them for comparison. The call rests on the fitted dose curve; in most records, active means well fitted inhibition curve with a large enough effect in the signal ratio, with a control signal flat (not every such curve was filed as active); inconclusive means small, poorly fitted or top-dose-only effect, or effect the other way, or a change in a side signal; inactive means flat fitted curve, though single readings scatter; the % refers to the signal ratio. Potencies of inconclusive entries are doubtful fits and often do not repeat.
# Test: qHTS Assay for Modulators of Lamin A Splicing
# Settings: HeLa LMNA splicing GFP/RFP minigene ratio, 48 h; ratio change, negative = inhibition: at 46.1 µM (top of the series) unless noted
# Procedure, shortened: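 S3 HeLa cells stably expressing lamin A-EGFP splicing minigene plus DsRed2, 600 cells/well, 48 h compound exposure at 37C. Laser-scanning cytometry; analysed as GFP (500-530 nm)/RFP (575-640 nm) total intensity ratio; 0.5% DMSO vehicle.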
# On the % scale 0 is the no-effect control and ±100 the full control effect; potency means the concentration at half of the fitted maximal effect.
Compound,"ratio change, negative = inhibition",Potency
O=C(Cc1c[nH]c2ccccc12)Nc1ccc(N2CCOCC2)cc1,inactive: -21.3% [at 46 µM],–
CC(=O)c1c(C)nc2ccc(Br)cc2c1-c1ccccc1,inactive: 5.47% [at 46 µM],–
CCOC(=O)NC(NCc1ccccc1)(C(F)(F)F)C(F)(F)F,inconclusive: -1.27%,–
COc1cc(-c2nnc3n(CCc4ccccc4)c(=O)c4ccccc4n23)cc(OC)c1OC,inactive: -3.43%,–
CCOC(=O)C1=C(O)/C(=C\c2cccc(OC)c2)N=C1C,inactive: 7.54%,–
COC(=O)c1sc2cccc(F)c2c1S(=O)(=O)NCc1ccc(F)cc1,inactive: -11.6% [at 46 µM],–
COc1ccc(CSCCNC(=S)Nc2ccccc2)cc1Cl,–,"inconclusive: 28.2 µM [inhibitor, single point]"
CC(C)NC(=S)N=Nc1c(O)[nH]c2ccc([N+](=O)[O-])cc12,inconclusive: -46.3% [at 46 µM],–
Cc1cc(NC(=O)c2ccccc2F)n(C(C)(C)C)n1,inconclusive: 7.4% [at 46 µM],–
O=[N+]([O-])c1cc(/C=N/O)ccc1Sc1ccccc1,inactive: -0.542%,–
Cc1ccc(NC(=O)c2ccccc2OCC(=O)Nc2cccc(Cl)c2C)nc1,inconclusive: -10% [at 46 µM],–
CC(C)N(C(=S)NC1CCCCC1)c1ccccc1,inactive: 3.97% [at 46 µM],–
CCN(CC)CCNC(=O)c1ccc(NC(=O)c2cn(-c3ccccc3)nc2-c2cccs2)cc1,–,"inconclusive: 35.5 µM [cytotoxic, single point]"
CCCNC(=O)C(=O)c1cccn1-c1ccsc1C(=O)OC,inconclusive: 6.38%,–
CN1CCc2nc(SCC(=O)Nc3cccc(F)c3)c(C#N)c(-c3cccs3)c2C1,inactive: -6.92%,–
O=S(=O)(NCc1cn2ccccc2n1)c1cc(F)ccc1F,inactive: -6.67%,–
CCOC(=O)CNC(=O)C12CC3CC(C1)CC(c1ccc(C)cc1)(C3)C2,inconclusive: 9.6% [at 46 µM],–
O=C(NCCC1=CCCCC1)c1coc(=O)c(Br)c1,inconclusive: -40.8%,–
COc1cccc(C(=O)NN/C(C)=C/C(=O)C(F)(F)C(F)(F)C(F)(F)F)c1,–,"inconclusive: 11.2 µM [falling, partial curve, poor fit]"
CCOc1ccc(C2=C(C(C)=O)Sc3nnc(C)n3N2C(C)=O)cc1,inconclusive: -44.2% [at 46 µM],–
Cc1ccc(CNC(=O)C(=O)NCC(c2cccs2)S(=O)(=O)c2ccccc2)cc1 (stereo unspecified),inconclusive: 7.13% [at 46 µM],–

# Laid out differently: entries from further up
Compound	ratio change, negative = inhibition	Potency
COc1cc(-c2nnc3n(CCc4ccccc4)c(=O)c4ccccc4n23)cc(OC)c1OC	inactive: -3.43%	–
O=C(NCCC1=CCCCC1)c1coc(=O)c(Br)c1	inconclusive: -40.8%	–

# The list continues:

Compound,"ratio change, negative = inhibition",Potency
O=C(Nc1ccccn1)NC12CC3CC(CC(C3)C1)C2,inconclusive: 4.19%,–
Cc1ccc(C(=O)OCC(=O)Nc2c(C)n(C)n(-c3ccccc3)c2=O)cc1[N+](=O)[O-],inactive: 9.76% [at 46 µM],–
CCOC(=O)c1ccc(N/C=C/C(=O)c2ccco2)cc1,inconclusive: 41.2%,–
Clc1ccc(Cl)c(OCCCCNCc2ccccc2)c1,inconclusive: 9.07%,–
CC1CCC(C(C)C)C(OC(=O)COC(=O)c2ccc(=O)[nH]c2)C1 (stereo unspecified),inconclusive: 8.08%,–
COCCNS(=O)(=O)c1ccc(OCC(=O)OC)c(Cl)c1,inactive: -12%,–
Cc1cc(C)cc(OCC(=O)OCC(=O)N2CC(=O)Nc3ccccc32)c1,inactive: 4.18% [at 46 µM],–
COCCn1c(=S)[nH]c2cc(C(=O)N3CCN(c4ccc(F)cc4)CC3)ccc2c1=O,inconclusive: -31.7%,–
COc1cccc(Nc2nc(-c3ccc(O)cc3)cs2)c1,inconclusive: -31.6%,–
CCCNC(=O)NC(=O)CSc1nc(C)cs1,inconclusive: -20.6% [at 46 µM],–
CCCCN(CCCC)S(=O)(=O)c1ccc(NC(=O)c2ccc([N+](=O)[O-])cc2Cl)cc1,–,"inconclusive: 35.5 µM [falling, single point]"
Cc1ccc(OCc2cn3cccnc3n2)cc1,inconclusive: -5.42%,–
O=C(Cn1c2c(sc1=O)C1c3ccccc3OCC1CS2)Nc1ccc(Cl)cc1 (stereo unspecified),–,"inconclusive: 35.5 µM [falling, single point]"
COc1cc2nc(C3CCC3)nc(N3CCN(c4ccccc4OC)CC3)c2cc1OC,inconclusive: -29.5%,–
Clc1ccc(-c2noc(CSc3nnc(-c4ccncc4)n3-c3ccccc3)n2)cc1,–,"inconclusive: 12.6 µM [falling, partial curve]"
O=S1(=O)CCC(NC(=S)SCCOc2ccccc2)C1 (stereo unspecified),inconclusive: -15.5% [at 46 µM],–
NC1(C(=O)O)CCCCC1,inconclusive: -7.74%,–
COc1ccccc1CNc1ncncc1-c1ccc(N(C)C)cc1,inconclusive: -15.5%,–
O=C(NCCC1=CCCCC1)c1ccc([N+](=O)[O-])cc1,inactive: -11%,–
O=C(CSc1nnc(CNc2ccccc2)o1)N1CCCc2ccccc21,inactive: -3.19%,–
